Experimental data taken from the supplement of paper PMC10849652.
The other results are listed elsewhere or left out.

Amino acid sequences for entries named in this document (tags omitted). A change or cut given only in a name is not applied to a line headed by its entry.
UniProt Q8WTW3: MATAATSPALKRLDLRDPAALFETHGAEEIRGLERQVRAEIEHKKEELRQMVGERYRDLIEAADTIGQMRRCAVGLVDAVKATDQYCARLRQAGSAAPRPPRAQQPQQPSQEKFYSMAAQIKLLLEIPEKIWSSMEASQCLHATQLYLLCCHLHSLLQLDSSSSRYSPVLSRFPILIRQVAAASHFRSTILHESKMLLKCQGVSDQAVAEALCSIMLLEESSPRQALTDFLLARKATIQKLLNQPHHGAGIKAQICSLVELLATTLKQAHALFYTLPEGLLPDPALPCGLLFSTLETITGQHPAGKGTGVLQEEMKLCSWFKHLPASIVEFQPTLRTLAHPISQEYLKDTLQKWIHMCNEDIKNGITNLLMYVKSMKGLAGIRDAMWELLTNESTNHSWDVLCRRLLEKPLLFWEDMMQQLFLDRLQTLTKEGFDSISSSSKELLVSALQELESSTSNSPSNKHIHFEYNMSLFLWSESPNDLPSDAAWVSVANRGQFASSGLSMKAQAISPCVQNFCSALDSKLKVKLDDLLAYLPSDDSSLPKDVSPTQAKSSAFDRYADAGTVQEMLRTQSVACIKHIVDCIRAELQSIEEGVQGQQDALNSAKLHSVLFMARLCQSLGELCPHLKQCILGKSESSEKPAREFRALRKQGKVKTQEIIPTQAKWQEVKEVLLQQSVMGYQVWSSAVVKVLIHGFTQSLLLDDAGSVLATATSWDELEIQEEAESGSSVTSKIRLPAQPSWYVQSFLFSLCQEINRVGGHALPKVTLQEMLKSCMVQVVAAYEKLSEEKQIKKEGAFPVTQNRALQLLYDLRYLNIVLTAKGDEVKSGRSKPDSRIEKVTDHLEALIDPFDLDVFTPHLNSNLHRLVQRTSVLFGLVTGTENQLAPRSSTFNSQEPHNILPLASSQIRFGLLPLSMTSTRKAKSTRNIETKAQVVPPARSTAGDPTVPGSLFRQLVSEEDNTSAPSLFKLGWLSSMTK
UniProt Q99829: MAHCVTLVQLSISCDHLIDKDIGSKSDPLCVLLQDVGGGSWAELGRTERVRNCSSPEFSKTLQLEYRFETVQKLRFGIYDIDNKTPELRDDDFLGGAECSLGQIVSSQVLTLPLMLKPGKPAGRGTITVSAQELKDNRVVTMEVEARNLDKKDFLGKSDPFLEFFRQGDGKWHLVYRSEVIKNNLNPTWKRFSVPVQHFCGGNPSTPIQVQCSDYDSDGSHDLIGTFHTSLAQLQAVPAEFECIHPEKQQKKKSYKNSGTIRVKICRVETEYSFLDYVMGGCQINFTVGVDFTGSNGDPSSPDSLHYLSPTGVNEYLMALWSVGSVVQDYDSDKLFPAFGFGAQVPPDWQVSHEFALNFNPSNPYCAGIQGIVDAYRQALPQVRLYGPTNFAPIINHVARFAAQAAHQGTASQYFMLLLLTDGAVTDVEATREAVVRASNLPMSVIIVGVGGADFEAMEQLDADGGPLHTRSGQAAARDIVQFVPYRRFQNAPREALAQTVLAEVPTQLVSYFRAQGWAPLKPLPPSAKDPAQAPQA
UniProt P20674, whole entry, looked up: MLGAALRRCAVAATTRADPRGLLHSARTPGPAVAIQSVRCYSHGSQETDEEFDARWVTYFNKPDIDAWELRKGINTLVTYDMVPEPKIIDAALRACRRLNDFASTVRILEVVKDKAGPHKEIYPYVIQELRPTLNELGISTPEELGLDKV
UniProt Q86WW8: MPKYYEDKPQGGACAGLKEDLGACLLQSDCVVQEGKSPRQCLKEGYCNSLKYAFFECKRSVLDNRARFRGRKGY
UniProt P39059: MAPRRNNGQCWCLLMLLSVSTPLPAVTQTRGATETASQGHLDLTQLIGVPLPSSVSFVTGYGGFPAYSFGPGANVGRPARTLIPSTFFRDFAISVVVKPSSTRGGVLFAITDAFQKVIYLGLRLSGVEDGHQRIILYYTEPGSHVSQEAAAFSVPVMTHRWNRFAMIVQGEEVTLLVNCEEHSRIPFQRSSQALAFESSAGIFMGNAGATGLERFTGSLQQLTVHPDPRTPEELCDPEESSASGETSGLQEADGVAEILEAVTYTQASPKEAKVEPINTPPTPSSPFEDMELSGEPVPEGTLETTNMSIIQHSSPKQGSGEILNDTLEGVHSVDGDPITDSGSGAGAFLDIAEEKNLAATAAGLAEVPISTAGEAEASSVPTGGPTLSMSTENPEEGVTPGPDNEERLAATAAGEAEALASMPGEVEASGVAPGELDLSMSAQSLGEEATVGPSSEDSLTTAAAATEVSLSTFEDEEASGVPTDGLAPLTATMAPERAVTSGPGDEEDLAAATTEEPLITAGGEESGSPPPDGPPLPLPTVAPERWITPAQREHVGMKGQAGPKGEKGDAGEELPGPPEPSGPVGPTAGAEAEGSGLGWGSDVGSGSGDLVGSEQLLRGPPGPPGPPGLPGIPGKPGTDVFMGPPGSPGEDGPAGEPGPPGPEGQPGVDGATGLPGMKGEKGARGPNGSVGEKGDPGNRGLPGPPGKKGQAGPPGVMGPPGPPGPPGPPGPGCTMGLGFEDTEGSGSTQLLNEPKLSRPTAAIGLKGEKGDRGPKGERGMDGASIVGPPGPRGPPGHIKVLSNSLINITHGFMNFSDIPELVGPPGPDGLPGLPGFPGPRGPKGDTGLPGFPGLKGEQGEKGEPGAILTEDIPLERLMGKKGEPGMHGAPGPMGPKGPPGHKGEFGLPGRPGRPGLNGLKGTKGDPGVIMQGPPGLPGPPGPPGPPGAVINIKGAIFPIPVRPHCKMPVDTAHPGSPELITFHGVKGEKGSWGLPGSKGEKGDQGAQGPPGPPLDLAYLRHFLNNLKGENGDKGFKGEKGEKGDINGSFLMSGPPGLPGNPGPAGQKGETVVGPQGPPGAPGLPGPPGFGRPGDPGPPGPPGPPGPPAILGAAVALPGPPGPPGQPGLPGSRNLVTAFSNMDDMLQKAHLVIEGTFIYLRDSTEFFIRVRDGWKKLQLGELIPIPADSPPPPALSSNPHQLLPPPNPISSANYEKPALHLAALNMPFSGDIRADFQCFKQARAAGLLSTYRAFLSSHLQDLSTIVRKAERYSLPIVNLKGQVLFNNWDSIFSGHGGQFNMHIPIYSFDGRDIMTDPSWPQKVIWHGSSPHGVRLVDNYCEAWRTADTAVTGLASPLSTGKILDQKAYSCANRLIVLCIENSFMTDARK
UniProt P23786: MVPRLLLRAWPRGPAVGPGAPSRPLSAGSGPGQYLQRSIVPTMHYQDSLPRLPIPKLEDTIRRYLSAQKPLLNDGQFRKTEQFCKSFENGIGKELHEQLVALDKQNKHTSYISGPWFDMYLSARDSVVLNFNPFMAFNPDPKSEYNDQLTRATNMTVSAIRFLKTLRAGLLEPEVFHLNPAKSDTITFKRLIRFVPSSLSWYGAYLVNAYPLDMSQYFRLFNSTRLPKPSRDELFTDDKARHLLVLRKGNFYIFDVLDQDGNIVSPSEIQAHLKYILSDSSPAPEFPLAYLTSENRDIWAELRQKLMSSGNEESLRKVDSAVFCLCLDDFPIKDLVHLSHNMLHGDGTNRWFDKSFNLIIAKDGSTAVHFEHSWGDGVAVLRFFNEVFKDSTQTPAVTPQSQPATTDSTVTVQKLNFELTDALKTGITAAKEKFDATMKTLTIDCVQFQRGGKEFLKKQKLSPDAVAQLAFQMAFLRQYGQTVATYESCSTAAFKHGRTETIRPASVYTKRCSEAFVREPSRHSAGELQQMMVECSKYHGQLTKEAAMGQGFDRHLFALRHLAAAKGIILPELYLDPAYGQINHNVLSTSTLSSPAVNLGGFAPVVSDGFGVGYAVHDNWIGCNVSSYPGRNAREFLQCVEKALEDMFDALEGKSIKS
UniProt O75175, whole entry, looked up: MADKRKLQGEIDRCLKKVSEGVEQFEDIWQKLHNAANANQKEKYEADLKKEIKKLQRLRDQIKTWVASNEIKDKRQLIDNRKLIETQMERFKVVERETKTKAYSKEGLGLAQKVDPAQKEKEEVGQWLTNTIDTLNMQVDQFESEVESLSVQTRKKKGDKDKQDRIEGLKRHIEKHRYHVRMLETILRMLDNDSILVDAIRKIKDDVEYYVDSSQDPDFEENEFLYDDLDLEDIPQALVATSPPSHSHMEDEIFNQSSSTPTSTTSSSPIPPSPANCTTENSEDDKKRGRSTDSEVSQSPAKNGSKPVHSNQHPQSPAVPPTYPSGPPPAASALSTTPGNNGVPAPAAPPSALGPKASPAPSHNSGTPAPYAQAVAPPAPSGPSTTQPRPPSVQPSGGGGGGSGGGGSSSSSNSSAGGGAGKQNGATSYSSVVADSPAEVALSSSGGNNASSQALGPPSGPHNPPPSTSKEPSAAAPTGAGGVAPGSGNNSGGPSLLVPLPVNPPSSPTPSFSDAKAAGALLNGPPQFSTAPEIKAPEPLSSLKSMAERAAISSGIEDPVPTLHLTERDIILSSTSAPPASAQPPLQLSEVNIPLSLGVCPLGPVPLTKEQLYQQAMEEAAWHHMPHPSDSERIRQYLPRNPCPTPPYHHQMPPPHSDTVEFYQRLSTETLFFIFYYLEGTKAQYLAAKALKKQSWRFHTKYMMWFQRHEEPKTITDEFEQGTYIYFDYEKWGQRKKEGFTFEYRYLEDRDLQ
UniProt Q96JB2: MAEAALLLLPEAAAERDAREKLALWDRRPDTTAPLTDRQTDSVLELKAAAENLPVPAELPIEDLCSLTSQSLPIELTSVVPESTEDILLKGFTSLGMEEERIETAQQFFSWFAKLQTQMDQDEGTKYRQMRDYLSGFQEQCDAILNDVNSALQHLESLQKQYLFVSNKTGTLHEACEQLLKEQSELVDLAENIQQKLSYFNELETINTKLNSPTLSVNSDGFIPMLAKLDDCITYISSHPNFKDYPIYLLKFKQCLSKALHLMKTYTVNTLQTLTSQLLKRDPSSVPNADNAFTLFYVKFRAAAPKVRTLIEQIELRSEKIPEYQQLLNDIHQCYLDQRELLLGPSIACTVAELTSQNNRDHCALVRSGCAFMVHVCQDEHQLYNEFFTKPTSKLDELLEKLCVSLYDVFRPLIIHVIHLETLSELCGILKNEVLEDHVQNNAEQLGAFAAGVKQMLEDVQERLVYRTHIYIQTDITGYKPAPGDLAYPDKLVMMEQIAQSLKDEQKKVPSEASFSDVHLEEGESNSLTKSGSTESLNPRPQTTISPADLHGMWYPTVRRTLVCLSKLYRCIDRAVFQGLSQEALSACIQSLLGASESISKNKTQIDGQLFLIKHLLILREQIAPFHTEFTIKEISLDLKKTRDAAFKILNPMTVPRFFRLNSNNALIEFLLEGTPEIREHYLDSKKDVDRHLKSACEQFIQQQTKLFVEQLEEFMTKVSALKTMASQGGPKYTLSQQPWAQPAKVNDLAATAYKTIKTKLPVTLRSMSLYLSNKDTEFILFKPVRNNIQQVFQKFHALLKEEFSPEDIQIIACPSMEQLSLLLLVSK
UniProt Q9BSW2: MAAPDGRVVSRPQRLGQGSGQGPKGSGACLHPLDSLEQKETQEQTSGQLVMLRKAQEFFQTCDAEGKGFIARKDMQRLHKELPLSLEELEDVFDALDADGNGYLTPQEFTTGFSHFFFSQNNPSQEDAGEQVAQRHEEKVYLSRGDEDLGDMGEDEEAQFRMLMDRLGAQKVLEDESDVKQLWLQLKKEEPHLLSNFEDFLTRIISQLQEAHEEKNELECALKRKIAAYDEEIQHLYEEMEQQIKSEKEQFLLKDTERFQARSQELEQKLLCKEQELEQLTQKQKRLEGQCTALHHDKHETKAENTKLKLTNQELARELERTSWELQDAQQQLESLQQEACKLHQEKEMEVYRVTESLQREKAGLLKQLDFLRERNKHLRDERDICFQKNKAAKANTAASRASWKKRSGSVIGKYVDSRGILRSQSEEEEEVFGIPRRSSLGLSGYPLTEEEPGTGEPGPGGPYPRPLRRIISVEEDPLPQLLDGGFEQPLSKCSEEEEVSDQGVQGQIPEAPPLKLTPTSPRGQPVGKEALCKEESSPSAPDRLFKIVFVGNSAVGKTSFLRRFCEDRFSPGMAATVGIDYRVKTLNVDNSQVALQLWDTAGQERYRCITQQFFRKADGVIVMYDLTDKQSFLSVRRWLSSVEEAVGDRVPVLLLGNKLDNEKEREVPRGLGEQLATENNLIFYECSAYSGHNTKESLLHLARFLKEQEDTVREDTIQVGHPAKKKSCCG
UniProt P15954, whole entry, looked up: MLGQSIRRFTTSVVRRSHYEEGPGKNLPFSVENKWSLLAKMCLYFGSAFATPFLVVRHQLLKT
UniProt Q9NYJ1, whole entry, looked up: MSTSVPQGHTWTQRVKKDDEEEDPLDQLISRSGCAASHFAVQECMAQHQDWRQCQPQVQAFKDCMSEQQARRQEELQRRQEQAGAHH
UniProt O75208: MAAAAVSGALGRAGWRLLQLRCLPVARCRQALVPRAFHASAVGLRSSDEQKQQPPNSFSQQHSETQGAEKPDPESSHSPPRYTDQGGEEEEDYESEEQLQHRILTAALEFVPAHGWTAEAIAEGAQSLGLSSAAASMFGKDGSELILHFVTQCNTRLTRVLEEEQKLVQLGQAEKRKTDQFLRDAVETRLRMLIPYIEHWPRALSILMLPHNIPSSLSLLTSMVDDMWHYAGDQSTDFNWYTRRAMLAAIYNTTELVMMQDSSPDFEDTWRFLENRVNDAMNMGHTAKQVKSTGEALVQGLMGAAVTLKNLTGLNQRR

These targets were tested with c1cn2cc(-c3ccc4cn[nH]c4c3)nc(Nc3ccc(N4CCOCC4)cc3)c2n1 [entospletinib] (assay: log2 fold change, soluble protein after heating vs DMSO (PISA); higher = thermal stabilisation; K562 lysate, 10 uM; active = over 0.2 and 3.5 SD of the protein, either way, in both replicates (recomputed)).
In short: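 Dounce homogenisation of K562 pellets in PBS pH 7.4 with 1 mM MgCl2 produced a crude extract, used at 1 mg/mL protein. Exposure to 10 μM compound lasted 30 min, and aliquots were then heated for 3 min across 48°C-58°C, pooled and brought to 0.5% NP-40 at 4°C. The supernatant after 21,000xg for 90 min was quantified by TMTpro 16plex LC-MS/MS with channel sums equalised. Duplicate values are given as log-two fold change in thermal stability relative to solvent controls.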

log2 fold change, inactive:
COG1 (UniProt Q8WTW3) 0.053, CPNE1 (UniProt Q99829) -0.004, COX5A (UniProt P20674) -0.028, COA5 (UniProt Q86WW8) -0.013, CNPY3 (UniProt Q9BT09) 0.024, CNPY4 (UniProt Q8N129) -0.01, COL18A1 (UniProt P39060) 0.027, CPQ (UniProt Q9Y646) 0.006, COMMD1 (UniProt Q8N668) 0.048, COL15A1 (UniProt P39059) 0.125, COX18 (UniProt Q8N8Q8) -0.135, COIL (UniProt P38432) 0.006, CPT2 (UniProt P23786) 0.006, COQ5 (UniProt Q5HYK3) 0, COPS7B isoform 3 (UniProt Q9H9Q2) -0.017, CNOT3 (UniProt O75175) -0.046, CNNM2 (UniProt Q9H8M5) -0.073, COPS5 (UniProt Q92905) 0.023, COPS7A (UniProt Q9UBW8) 0.016, COG3 (UniProt Q96JB2) -0.017, CRACR2A isoform 2 (UniProt Q9BSW2) -0.065, COX4I1 (UniProt P13073) 0.022, COX7C (UniProt P15954) -0.21, CNOT4 isoform 6 (UniProt O95628) -0.011, CORO7 (UniProt P57737) -0.045, COLGALT2 (UniProt Q8IYK4) -0.006, COPS4 (UniProt Q9BT78) 0.006, COX5B (UniProt P10606) -0.051, COX15 (UniProt Q7KZN9) 0.003, COPS3 (UniProt Q9UNS2) 0.044, CORO7 isoform 3 (UniProt P57737) 0.005, COA4 isoform 2 (UniProt Q9NYJ1) -0.038, COMMD2 (UniProt Q86X83) -0.033, CNOT11 (UniProt Q9UKZ1) -0.01, CNOT7 (UniProt Q9UIV1) 0.003, CNOT9 (UniProt Q92600) 0.018, CORO1B (UniProt Q9BR76) 0.013, COQ9 (UniProt O75208) -0.012, COTL1 (UniProt Q14019) 0.023
